Patent US20070178531A1 (BIOCHECK, published 2007)
Changes are numbered by the printed parent chain. Results are given in words; binding and its absence hold for the method and conditions named. Some results given as binding are weak or reduced against the parent protein; the word gives no strength. For some assays here: Sequences can lack the tags named with a protein.

Key:
human Id3 protein = target: T1, human Id3 protein (human, UniProt Q02535 1-119 at identity 1.00)); test: Western blot on Hela whole cell extract
T1 chain: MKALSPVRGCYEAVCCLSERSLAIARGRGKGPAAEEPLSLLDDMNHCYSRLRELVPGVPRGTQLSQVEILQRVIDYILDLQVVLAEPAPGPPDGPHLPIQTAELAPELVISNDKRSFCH

Human Id3: Histidine = target: T2, Human Id3: Histidine (human, UniProt Q02535 1-119 at identity 1.00)); test: ELISA on coated wells
T2 construct: Fusion protein made in E. coli from vector pGW07; also called h-Id3: His; Human Id3 (coated wells); not shown: His tag
T2 chain: T1 chain

mouse Id3 protein [1] = target: T3, mouse Id3 protein (mouse, UniProt P41133 1-119); test: Western blot on 10T1/2 whole cell extract
T3 sequence: T1 chain with G31S, A33S, A34T, A105T, N112K

mouse Id3 protein [2] = target: T3, mouse Id3 protein; test: immunohistochemistry on embryonic (E13.5) mouse brain sections
Mouse Id3: Histidine = target: T4, Mouse Id3: Histidine (mouse, UniProt P41133 1-119); test: ELISA on coated wells
T4 construct: Fusion protein made in E. coli from vector pGW07; also called m-Id3: His; Mouse Id3 (coated wells); not shown: His tag
T4 sequence: T1 chain with G31S, A33S, A34T, A105T, N112K

Measured: binding

B1: rabbit monoclonal anti-mouse/human Id3, clone #BCH-4/#6-1 (antibody, V domains shown)
VH: QSVEESGGRLVTPGTPLTLTCTASGFSLSNVYIHWVRQAPGKGLEWIGYISDGDTARYATWAKGRFTISKTSSTTVNLKMTSLTTEDTATYFCARQGFNIWGPGTLVTVSL
VL: AVLTQTPSPVSAAVGGTVSISCQSSQSVWNNNWLSWFQQKPGQPPKLLIYETSKLESGVPSRFKGSGSGTQFTLTISDVQCDDAATYYCLGGYWTTSDNNVFGGGTEVVVK
notes: Rabbit IgG from a rabbit hybridoma; also called m/h Id3 MoAb 6-1
binds: human Id3 protein | Human Id3: Histidine

B2: rabbit monoclonal anti-mouse/human Id3, clone #BCH-4/#16-1 (antibody, V domains shown)
VH: B1 VH with N30S, V31Y, G43A, D54G, A56T, R57Y, T60S, N77D
VL: B1 VL with S19T, W29Y, P41S, S77I, V101I
notes: Rabbit IgG from a rabbit hybridoma; also called m/h Id3 MoAb 16-1
binds: all assays above

B3: rabbit monoclonal anti-mouse/human Id3, clone #BCH-4/#42-1 (antibody, V domains shown)
VH: B1 VH with N30S, V31Y, G43A, D54G, A56T, R57Y, T60S, N77D
VL: B1 VL with S19T, W29Y, P41S, S77I, T95S, V101I
notes: Rabbit IgG from a rabbit hybridoma; also called m/h Id3 MoAb 42-1
binds: all assays above

B4: rabbit monoclonal anti-mouse/human Id3, clone #BCH-4/#17-3 (antibody, V domains shown)
VH: B1 VH
VL: B1 VL
notes: Rabbit IgG from a rabbit hybridoma; also called m/h Id3 MoAb 17-3; BCH-3/#17-3
binds: human Id3 protein | Human Id3: Histidine
